Assay results reported in patent publication US8575376B2, “Steroide anionic compounds, method of their production, usage and pharmaceutical preparation involving them” (Ustav Organicke Chemie A Biochemie Akademie Ved Ceske …, priority 2009, dated 2013).

Test system: rats
Assay: AAPA task after MK-801 (animal model of schizophrenia)
Type: in vivo, rat
Conditions: MK-801 0.1 mg/kg alone
Method: The effect of compound from example 9 application on changes in behavior and locomotor activity in animal model of schizophrenia was monitored. Schizophrenia-like behavior in rats was induced by dizocilpine (MK-801) administration. […] was administered in doses of 0.001 mg/kg, 0.01 mg/kg, 0.1 mg/kg and 10 mg/kg. Spatial orientation and cognitive function of rats were assessed in active allothetic place avoidance task (AAPA).
Schizophrenia-like behaviour in rats was induced by administration of dizocilpine (MK-801). Spatial navigation and cognitive functions of rats were assessed in active alothetic place avoidance task (AAPA). In addition, this task allows simultaneous assessment of potential differences in locomotory activity. The AAPA task requires rats moving on a continuously rotating (1 rpm) smooth metallic circular arena to avoid an unmarked place defined in the coordinates of the experimental room. The avoidance is reinforced by a mild electric foot-shock administered automatically upon entering the to-be avoided place.
The AAPA task is highly dependent on hippocampal function, since even a unilateral inactivation of thstructure hippocampus impairs this behaviour. Animals have to actively and repeatedly move away from the to-be-avoided place otherwise they are brought there by the arena rotation. Each AAPA session lasts 20 min and 4 sessions were conducted over 4 consecutive days.
Rats received 0.1 mg/kg MK-801 alone or co-administered with the compound from example 9 (dissolved in β-cyclodextrine) in doses of 0.001 mg/kg, 0.01 mg/kg, 0.1 mg/kg, and 10 mg/kg. Control animals received saline. […] It is for a common animal model of schizophrenia-like behaviour.
The results are shown in FIGS. 21-23, where means and standard errors of the mean (S.E.M.) are represented for individual sessions. Statistic analysis was for better clarity stated always for the last session, when an asymptotic level of performance in control animals was reached.

C[C@]12N[C@H](Cc3ccccc31)c1ccccc12 [dizocilpine]
locomotion activity in AAPA (total distance): did not lead to enhanced locomotion | maximum time of avoidance in AAPA: produced a significant deficit in this parameter | number of errors (entrances) in AAPA: resulted in marked impairment of this parameter
